Measurements: the supplement of paper PMC4604168 (melanoma cell lines)
The list shows a part of the results. Repeats are few or missing, and single values can be far off.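 Cells were imaged in 1,536-well plates, and nuclei stained with an antibody against cleaved PARP were counted against all DNA-stained nuclei to give the apoptosis fraction. Screening doses were chosen to leave most cells alive, and resting and induced cleaved-PARP levels differ strongly between cell lines.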

Columns and labels:
Assay in all cases: cleaved PARP positive nuclei fraction relative to DMSO control; melanoma cells; higher = more apoptosis
Conditions in all cases: library dose: low library concentration; 72 h
MZ2-MEL = tested on: MZ2-MEL
MeWo = tested on: MeWo
RPMI7951 = tested on: RPMI7951
RVH-421 = tested on: RVH-421
SkMel28 = tested on: SkMel28
SkMel2 = tested on: SkMel2
SkMel30 = tested on: SkMel30
UACC62 = tested on: UACC62
WM115 = tested on: WM115
WM1716 = tested on: WM1716
WM1745 = tested on: WM1745
WM3526 = tested on: WM3526
WM3619 = tested on: WM3619
WM451Lu = tested on: WM451Lu

Row | Compound | cleaved PARP positive nuclei fraction (MZ2-MEL) | cleaved PARP positive nuclei fraction (MeWo) | cleaved PARP positive nuclei fraction (RPMI7951) | cleaved PARP positive nuclei fraction (RVH-421) | cleaved PARP positive nuclei fraction (SkMel28) | cleaved PARP positive nuclei fraction (SkMel2) | cleaved PARP positive nuclei fraction (SkMel30) | cleaved PARP positive nuclei fraction (UACC62) | cleaved PARP positive nuclei fraction (WM115) | cleaved PARP positive nuclei fraction (WM1716) | cleaved PARP positive nuclei fraction (WM1745) | cleaved PARP positive nuclei fraction (WM3526) | cleaved PARP positive nuclei fraction (WM3619) | cleaved PARP positive nuclei fraction (WM451Lu)
1 | O=C(Nc1cc(C(F)(F)F)cc(C(F)(F)F)c1)c1cc(Cl)ccc1O + Cn1sc(=O)n(Cc2ccccc2)c1=O [TDZD-8] (first compound 0.016 µM, partner dose 0.4 µM) | 88.4% | 64.7% | 71% | 43.7% | 131% | 159% | 18.9% | 23.2% | 123% | 206% | 104% | 38.2% | 92.5% | 82.9%
2 | CCCCCCCCCCCCCCCCCCOP(=O)([O-])OC1CC[N+](C)(C)CC1 [Perifosine] + Nc1cccc2c1CN(C1CCC(=O)NC1=O)C2=O [lenalidomide] (first compound 0.4 µM, partner dose 1 µM) | 90.1% | 134% | 104% | 187% | 83.3% | 91.3% | 17.3% | 60.4% | 78.7% | 96.9% | 95.3% | 116% | 112% | 88.5%
3 | Cc1cc(Nc2cc(N3CCN(C)CC3)nc(Sc3ccc(NC(=O)C4CC4)cc3)n2)n[nH]1 [Tozasertib] + Cc1ccc(Nc2nccc(N(C)c3ccc4c(C)n(C)nc4c3)n2)cc1S(N)(=O)=O [Pazopanib] (first compound 0.006 µM, partner dose 0.4 µM) | 90.6% | 68% | 151% | 92.9% | 52.4% | 59.6% | 82.7% | 177% | 179% | 81.5% | 90.1% | 22% | 101% | 68.9%
4 | CC[C@]1(O)C[C@H]2CN(CCc3c([nH]c4ccccc34)[C@@](C(=O)OC)(c3cc4c(cc3OC)N(C=O)[C@H]3[C@@](O)(C(=O)OC)[C@H](OC(C)=O)[C@]5(CC)C=CCN6CC[C@]43[C@@H]65)C2)C1 [vincristine] + CN1CCN(c2ccc3nc(-c4c(N)c5c(F)cccc5[nH]c4=O)[nH]c3c2)CC1 [Dovitinib] (first compound 0.0001 µM, partner dose 0.1 µM) | 141% | 126% | 85.8% | 124% | 58.3% | 119% | 219% | 86.7% | 920% | 301% | 97.2% | 199% | 193% | 88.7%
5 | N#CC[C@H](C1CCCC1)n1cc(-c2ncnc3[nH]ccc23)cn1 [ruxolitinib] + CCCCCCCCc1ccc(CCC(N)(CO)CO)cc1 [fingolimod] (first compound 1 µM, partner dose 2 µM) | 89.3% | 150% | 139% | 149% | 89.9% | 189% | 71.4% | 40.3% | 91% | 51.9% | 104% | 39.2% | 101% | 121%
6 | COc1cc([C@@H]2c3cc4c(cc3[C@@H](O[C@@H]3O[C@@H]5CO[C@@H](C)O[C@H]5[C@H](O)[C@H]3O)[C@H]3COC(=O)[C@H]23)OCO4)cc(OC)c1O [etoposide] + COc1ccc(C2=N[C@@H](c3ccc(Cl)cc3)[C@@H](c3ccc(Cl)cc3)N2C(=O)N2CCNC(=O)C2)c(OC(C)C)c1 [Nutlin-3] (first compound 0.02 µM, partner dose 0.1 µM) | 41.4% | 103% | 109% | 178% | 83.4% | 151% | 112% | 56% | 93.3% | 44.1% | 96.3% | 70.1% | 102% | 52.3%
7 | Cc1cc(Nc2cc(N3CCN(C)CC3)nc(Sc3ccc(NC(=O)C4CC4)cc3)n2)n[nH]1 [Tozasertib] + C[C@]1(O)C[C@@H](c2nc(-c3ccc4ccc(-c5ccccc5)nc4c3)c3c(N)nccn32)C1 [OSI906] (first compound 0.006 µM, partner dose 0.4 µM) | 81.8% | 207% | 189% | 183% | 89.3% | 61.7% | 168% | 60.5% | 27.8% | 244% | 109% | 44.9% | 92.5% | 193%
8 | Cc1cc(Nc2cc(N3CCN(C)CC3)nc(Sc3ccc(NC(=O)C4CC4)cc3)n2)n[nH]1 [Tozasertib] + NC(=O)c1ccc(N(C(N)=O)c2c(F)cccc2F)nc1-c1ccc(F)cc1F [VX702] (first compound 0.006 µM, partner dose 0.4 µM) | 92.3% | 122% | 37.5% | 71.6% | 194% | 33.1% | 41.4% | 33.8% | 122% | 73.4% | 116% | 98.1% | 99.4% | 57.7%
9 | Cc1cc(Nc2cc(N3CCN(C)CC3)nc(Sc3ccc(NC(=O)C4CC4)cc3)n2)n[nH]1 [Tozasertib] + COCC[n+]1c2c(n(Cc3cnccn3)c1C)C(=O)c1ccccc1C2=O [YM155] (first compound 0.006 µM, partner dose 0.0004 µM) | 156% | 103% | 103% | 71.5% | 81.4% | 62.3% | 78.8% | 92.7% | 155% | 80.7% | 101% | 36.7% | 160% | 103%
10 | O=C(/C=C/c1cccnc1)NCCCCC1CCN(C(=O)c2ccccc2)CC1 + CN(c1ncccc1CNc1nc(Nc2ccc3c(c2)CC(=O)N3)ncc1C(F)(F)F)S(C)(=O)=O [PF562271] (first compound 0.01 µM, partner dose 0.08 µM) | 884% | 152% | 78.8% | 194% | 129% | 1410% | 26.8% | 208% | 122% | 51.8% | 104% | 46.5% | 130% | 102%
11 | CCCCCCCCCCCCCCCCCCOP(=O)([O-])OC1CC[N+](C)(C)CC1 [Perifosine] + Clc1ccc(Nc2nnc(Cc3ccncc3)c3ccccc23)cc1 [vatalanib] (first compound 0.4 µM, partner dose 2 µM) | 126% | 94.5% | 66.2% | 96.2% | 80.2% | 100% | 71.7% | 52.3% | 80.6% | 95.7% | 99.8% | 84.9% | 102% | 38.1%
12 | Cc1cc(Nc2cc(N3CCN(C)CC3)nc(Sc3ccc(NC(=O)C4CC4)cc3)n2)n[nH]1 [Tozasertib] + OCc1c[nH]c2ccccc12 [Indole-3-carbinol] (first compound 0.006 µM, partner dose 0.8 µM) | 46.7% | 68.9% | 45% | 57.1% | 57.9% | 37.3% | 38.8% | 137% | 107% | 98.1% | 105% | 37.1% | 106% | 91.2%
13 | O=C(Nc1cc(C(F)(F)F)cc(C(F)(F)F)c1)c1cc(Cl)ccc1O + Cc1ccc(Nc2nccc(N(C)c3ccc4c(C)n(C)nc4c3)n2)cc1S(N)(=O)=O [Pazopanib] (first compound 0.016 µM, partner dose 0.4 µM) | 25% | 32.5% | 96.7% | 52.1% | 79.8% | 108% | 41.7% | 102% | 55.4% | 488% | 97.4% | 74.3% | 82.5% | 25.1%
14 | CC[C@]1(O)C[C@H]2CN(CCc3c([nH]c4ccccc34)[C@@](C(=O)OC)(c3cc4c(cc3OC)N(C=O)[C@H]3[C@@](O)(C(=O)OC)[C@H](OC(C)=O)[C@]5(CC)C=CCN6CC[C@]43[C@@H]65)C2)C1 [vincristine] + CCCS(=O)(=O)Nc1ccc(F)c(C(=O)c2c[nH]c3ncc(Cl)cc23)c1F [PLX4720] (first compound 0.0001 µM, partner dose 0.08 µM) | 24.2% | 343% | 160% | 46.4% | 242% | 213% | 222% | 317% | 514% | 147% | 92.4% | 86.7% | 173% | 190%
15 | COc1cc([C@@H]2c3cc4c(cc3[C@@H](O[C@@H]3O[C@@H]5CO[C@@H](C)O[C@H]5[C@H](O)[C@H]3O)[C@H]3COC(=O)[C@H]23)OCO4)cc(OC)c1O [etoposide] + COc1ccc(Cl)c(Nc2nc3ccccc3nc2NS(=O)(=O)c2cccc(NC(=O)C(C)(C)N)c2)c1 [XL147] (first compound 0.02 µM, partner dose 0.8 µM) | 84.9% | 39.1% | 59.5% | 301% | 102% | 105% | 44.1% | 56.1% | 71.5% | 135% | 109% | 101% | 94.5% | 28.7%
16 | COc1cc([C@@H]2c3cc4c(cc3[C@@H](O[C@@H]3O[C@@H]5CO[C@@H](C)O[C@H]5[C@H](O)[C@H]3O)[C@H]3COC(=O)[C@H]23)OCO4)cc(OC)c1O [etoposide] + OCc1c[nH]c2ccccc12 [Indole-3-carbinol] (first compound 0.02 µM, partner dose 0.8 µM) | 78.1% | 161% | 44% | 152% | 209% | 179% | 57.6% | 311% | 124% | 78.7% | 99.2% | 156% | 100% | 91.3%
17 | COc1cc([C@@H]2c3cc4c(cc3[C@@H](O[C@@H]3O[C@@H]5CO[C@@H](C)O[C@H]5[C@H](O)[C@H]3O)[C@H]3COC(=O)[C@H]23)OCO4)cc(OC)c1O [etoposide] + Cc1ccc(Nc2nccc(N(C)c3ccc4c(C)n(C)nc4c3)n2)cc1S(N)(=O)=O [Pazopanib] (first compound 0.02 µM, partner dose 0.4 µM) | 106% | 75.4% | 95.6% | 358% | 156% | 82.7% | 86.7% | 43.1% | 55.8% | 39.1% | 98.6% | 196% | 125% | 87.2%
18 | Cc1cc(Nc2cc(N3CCN(C)CC3)nc(Sc3ccc(NC(=O)C4CC4)cc3)n2)n[nH]1 [Tozasertib] + CCCCCCCCc1ccc(CCC(N)(CO)CO)cc1 [fingolimod] (first compound 0.006 µM, partner dose 2 µM) | 94% | 75.2% | 77.4% | 130% | 23.7% | 329% | 72.2% | 48.3% | 128% | 80.1% | 103% | 67.3% | 103% | 94.9%

As entered above.
Value for COc1cc([C@@H]2c3cc4c(cc3[C@@H](O[C@@H]3O[C@@H]5CO[C@@H](C)O[C@H]5[C@H](O)[C@H]3O)[C@H]3COC(=O)[C@H]23)OCO4)cc(OC)c1O [etoposide] + Cc1ccc(Nc2nccc(N(C)c3ccc4c(C)n(C)nc4c3)n2)cc1S(N)(=O)=O [Pazopanib] (first compound 0.02 µM, partner dose 0.4 µM) under cleaved PARP positive nuclei fraction (UACC62): 43.1%
Value for N#CC[C@H](C1CCCC1)n1cc(-c2ncnc3[nH]ccc23)cn1 [ruxolitinib] + CCCCCCCCc1ccc(CCC(N)(CO)CO)cc1 [fingolimod] (first compound 1 µM, partner dose 2 µM) under cleaved PARP positive nuclei fraction (WM3619): 101%
